Source: PubChem BioAssay AID2417 (National Center for Advancing Translational Sciences (NCATS), 2010)
Among all 140,000 compounds or so, about 4,300 (3.1%) were called active. Inconclusive results, whose numbers are uncertain, are shown with a selection of clear calls.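 Rule for the calls: active = readout at or below -70, meaning at least 70% loss of cells showing the perinucleolar compartment, a nuclear body marking cancer cells; inconclusive = readout between -30 and a set limit; inactive = the rest.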

test: High Content Assay for Compounds that inhibit the Assembly of the Perinucleolar Compartment; settings: PC3M PTB-GFP, PNC prevalence imaging, 16 h; at 10 µM; hits give low values;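 note: plate controls were DMSO wells for no effect and camptothecin positive control wells for full effect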
Procedure, shortened: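 Read-out is percentage of cells bearing a perinucleolar compartment, from automated 20x imaging of fixed, Hoechst-stained PC3M PTB-GFP cells. Cells were seeded 4 h, then exposed 16 h to compound (23 nl of library stock) in duplicate plates.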

Row | Compound | activity change (PNC), negative = inhibition
1 | CCOc1ccc(-n2c(=O)c3c(C)c(C)sc3n(CC(=O)NCc3ccco3)c2=O)cc1 | inconclusive: -42.7%
2 | Cc1c(C(=O)NCc2ccccn2)sc2nc(-c3ccc(F)cc3)cn12 | inconclusive: -38.4%
3 | N=C1S/C(=C\c2cn[nH]c2-c2ccc(F)cc2)C(=O)N1c1ccccc1F | inconclusive: -30.3%
4 | O=S(=O)(N1CCOCC1)N1CCCN(S(=O)(=O)N2CCOCC2)CC1 | inconclusive: -32.8%
5 | O=C(CN1CCCN(Cc2ccc(F)cc2Cl)C1=O)NCc1ccccc1 | inconclusive: -64.8%
6 | CC1CCCCN1C(=O)CSc1nc(N)cc(=O)[nH]1 (stereo not given) | inactive: 16.8%
7 | O=C(Nc1ccc2c(c1)OCO2)C1CC(c2c(F)cccc2Cl)=NO1 (stereo not given) | inconclusive: -43.4%
8 | Cc1ccccc1Nc1nc(N)nc(CN2CCN(c3ccccn3)CC2)n1 | inconclusive: -32.4%
9 | CN(C)S(=O)(=O)N1CCC(Cc2ccccc2)CC1 | inconclusive: -39.4%
10 | c1ccc(-c2nnc3sc(-c4cc5ccccc5o4)nn23)cc1 | inconclusive: -49.7%
11 | CCn1nc(C(=O)OCC(=O)c2ccc3c(c2)OCCO3)c2ccccc2c1=O | inconclusive: -31.6%
12 | CCOC(=O)N1CCC(n2c(SCC(=O)NCCC3=CCCCC3)nc3ccccc3c2=O)CC1 | inactive: 6.28%
13 | CCCc1nn(-c2ccccc2)c2c1C(c1cccs1)C(C#N)=C(N)O2 (stereo not given) | inactive: 41.1%
14 | COc1ccc(-c2nnc(COc3ccc4ccccc4c3)o2)cc1OC | inconclusive: -31.3%
15 | CCOc1ccccc1CNC(=O)C1CCN(c2nc3ccccc3o2)CC1 | inconclusive: -45.4%
16 | Cc1cc(C)n2nc(SCC(=O)N(C)C)nc2n1 | inconclusive: -44.4%
17 | c1ccc(Cc2nn3c(C4COc5ccccc5O4)nnc3s2)cc1 (stereo not given) | inconclusive: -44.9%
18 | COc1ccc(-c2ccc(/C=N/N3C(=O)C4C5C=CC(C6CC56)C4C3=O)o2)c([N+](=O)[O-])c1 (stereo not given) | inactive: 74.1%
19 | CN(C)C(=O)c1cc([N+](=O)[O-])cc([N+](=O)[O-])c1N(C)C | inconclusive: -46.3%
20 | COc1cc(CNCCc2ccc(S(N)(=O)=O)cc2)ccc1OCC(=O)NC(C)(C)C | inconclusive: -32.6%
21 | COC(=O)c1cccc(NC(=O)c2cnoc2C)c1 | active: -119%
22 | Cn1c(/C(C#N)=C(\O)COc2ccc3ccccc3c2)nc2ccccc21 | inconclusive: -71.6%
23 | O=C(O)CCCC(=O)Nc1ccccc1Br | inactive: 6.63%

Gathered by group: those above containing a nitro group on carbon
Row | Compound | activity change (PNC), negative = inhibition
18 | COc1ccc(-c2ccc(/C=N/N3C(=O)C4C5C=CC(C6CC56)C4C3=O)o2)c([N+](=O)[O-])c1 (stereo not given) | inactive: 74.1%
19 | CN(C)C(=O)c1cc([N+](=O)[O-])cc([N+](=O)[O-])c1N(C)C | inconclusive: -46.3%

The list goes on:

Row | Compound | activity change (PNC), negative = inhibition
24 | COc1cc(S(=O)(=O)N2CCOCC2)ccc1NC(=O)COC(=O)c1ccccn1 | inactive: -12.6%
25 | C[C@@]12CC(=O)NC1N(C(=O)c1cccc(C(F)(F)F)c1)C(c1ccccc1O)C2 (stereo not given in full) | inconclusive: -36.9%
26 | Cn1c(C(=O)NCCCN2CCCCC2)cc2sccc21 | inconclusive: -42.9%
27 | CCC(=O)Nc1cnc(NC(=O)c2cccc(F)c2)cc1C | active: -100%
28 | O=C(c1ccccc1)N1CCN(C(=O)c2ccccc2)CC1 | inactive: 36.3%
29 | COc1ccc2oc(C(=O)c3ccccc3)c(NC(=O)CN3CCN(C)CC3)c2c1 | inconclusive: -32.5%
30 | COc1cccc(OCc2ccc(C(=O)NCC3CCCO3)cc2)c1 (stereo not given) | inactive: -11%
31 | CCOC(=O)CSc1ncnc2c1cnn2-c1ccccc1 | inconclusive: -55%
32 | N#Cc1c(-n2cccc2)cccc1-n1cccc1 | inconclusive: -31.5%
33 | Cc1ncc(CC(=O)n2cc(C(=O)c3cc(Cl)ccc3O)cn2)s1 | inconclusive: -43.6%
34 | c1cncc(-c2nc(NCc3ccco3)c3ccccc3n2)c1 | inconclusive: -51.2%
35 | Cn1c(=O)cc(OCC(=O)NCCCN2CCN(Cc3ccccc3)CC2)c2ccccc21 | inconclusive: -60.7%
36 | CC(C)(CO)Nc1nc(N2CCCC2)nc(N2CCCC2)n1 | inconclusive: -31.4%
37 | Cc1ccc(NC(=O)c2sccc2C)cc1[N+](=O)[O-] | active: -105%
38 | CC(=NCCCNC1CCCCC1)C1=C(O)CC(C)(C)CC1=O | inactive: -15.7%
39 | Cc1cccc(NC(=S)NNc2ncc(C(F)(F)F)cc2Cl)c1 | inactive: 39.6%
40 | NS(=O)(=O)c1ccc(CCNC(=O)NC2(C(F)(F)F)Oc3ccccc3O2)cc1 | active: -100%
41 | O=C(O)C1[C@H]2C(=O)N(Cc3cccs3)C[C@]23C=C[C@H]1O3 (stereo not given in full) | inconclusive: -37.2%
42 | CCNc1nc(Oc2ccc(C(=O)OC)cc2)nc(N(C)C)n1 | inactive: 340%
43 | Cn1c(=O)n(C)c2cc(NC(=O)CCl)ccc21 | inconclusive: -33.8%
44 | CCc1ccc(-c2csc(NC(=O)Oc3ccccc3)n2)cc1 | inconclusive: -41.7%
45 | CC(=O)c1c(C)nc(-c2ccc(Cl)cc2Cl)n1O | active: -100%
46 | O=C(CSc1ncn[nH]1)Nc1ccc(S(=O)(=O)N2CCCC2)cc1 | inactive: 7.06%

Row | Compound | activity change (PNC), negative = inhibition
47 | CCOc1ccccc1C1C(C#N)=C(N)Oc2cc(N)ccc21 (stereo not given) | inconclusive: -53%
48 | O=C(NCc1cccs1)c1cnc2sccn2c1=O | inconclusive: -33.6%
49 | CCC(c1nnnn1Cc1ccc2c(c1)OCO2)N1CCN(c2ccccc2)CC1 (stereo not given) | inconclusive: -44%
50 | COc1ccc(N2CC(NC(=O)NC(C)(C)C)CC2=O)cc1 (stereo not given) | inconclusive: -52.3%
51 | CC(=O)c1ccc(NC(=O)N[C@@H](CC(C)C)C(=O)O)cc1 | inconclusive: -34.4%
52 | CCN=C1S/C(=C\c2ccc(OC)c(OCC)c2)C(=O)N1CC | inactive: 34%
53 | CCOC(=O)C1CCN(C2CC(=O)N(c3ccc(OCC)cc3)C2=O)CC1 (stereo not given) | inconclusive: -30%
54 | CC(=O)NC(Cc1ccccc1)C(=O)O (stereo not given) | inconclusive: -63.6%
55 | Cc1cc2c(=O)n(CC(=O)NCC(=O)N3CCN(Cc4ccccc4)CC3)cnc2s1 | inconclusive: -69.2%
56 | CCCn1c(SCC(=O)NCC2CCCO2)nc2c1c(=O)n(C)c(=O)n2C (stereo not given) | inconclusive: -45.5%
57 | CN1CCC(N(C)C(=O)c2ccccc2Nc2ccc(SC(F)F)cc2)CC1 | inconclusive: -32.9%
58 | COC(=O)c1c(-c2ccc(F)cc2)noc1N | active: -89%
59 | Cc1ccc(C)c(-n2c(N)c(C(N)=O)sc2=S)c1 | inconclusive: -35.8%
60 | Cc1onc(-c2c(Cl)cccc2Cl)c1C(=O)N1CCCc2ccccc21 | inactive: 15.7%
61 | COc1ccc(/C=N/Nc2nc(N3CCCC3)nc(N3CCCC3)n2)c(OC)c1OC | inconclusive: -42.9%
62 | CC1(C)CC(=O)C=C(NCc2ccccc2)C1 | inconclusive: -70.8%
63 | COc1ccc(/C=N/n2c(=O)[nH]c3c([nH]c4ccc(Br)cc43)c2=O)cc1CN1CCOCC1 | inconclusive: -48.8%
64 | CCOC(=O)C1C(=O)CC(C)(O)C(C(=O)OCC)C1c1ccc(N(CC)CC)cc1 (stereo not given) | active: -119%
65 | CN1C(=O)C(CC(=O)NC2CCCCC2)SC1=Nc1ccccc1 (stereo not given) | inconclusive: -37.7%
66 | Cc1ccc(SCC(=O)c2sc(-c3ccccc3)nc2C)cc1 | inconclusive: -64.4%
67 | O=C(NCc1cccs1)c1cc2c(s1)-c1ccccc1OC2 | inactive: 13%
68 | NS(=O)(=O)c1cccc(NC(=O)COC(=O)c2cc(-c3ccc(Cl)cc3)nc3ccccc23)c1 | inconclusive: -34%
69 | COc1ccccc1CN(CC(=O)NCc1ccco1)C(=O)CNS(=O)(=O)c1ccccc1 | inconclusive: -60.3%

Row | Compound | activity change (PNC), negative = inhibition
70 | CC(C)NC(=S)N/N=C/c1cc(Br)ccc1O | inconclusive: -58.2%
71 | N#Cc1c(SCC(N)=O)nsc1SCc1ccc(Cl)cc1 | active: -82.8%
72 | COc1ccccc1NC(=O)C1CCCN(c2nc(C)cc(C)n2)C1 (stereo not given) | inactive: 25.1%
73 | COC(=O)c1ccc(NC(=S)NC(=O)c2cc(-c3ccccc3)nc3ccccc23)cc1 | inactive: -14.1%
74 | Cc1ccc(-n2c(CNc3ccc(F)cc3)nnc2SCC(=O)NCc2ccco2)cc1 | inconclusive: -40.6%
75 | O=S(=O)(c1ccc2c(c1)OCCCO2)N1CCNCC1 | inconclusive: -63.8%
76 | Cc1ccc(/C=C/C(=O)Nc2ccc(N(C)C)cc2)o1 | inactive: 35.9%
77 | COc1ccc(CNC(=O)c2ccc(NS(=O)(=O)c3c(C)noc3C)cc2)cc1 | inconclusive: -48.7%
78 | O=C(CSc1nnnn1-c1ccc2c(c1)OCO2)NCc1ccccc1 | inconclusive: -31.2%
79 | CCOc1ccc(/C(O)=C2\C(=O)C(=O)N(c3cc(C)on3)C2c2ccccc2OC)cc1 (stereo not given) | inconclusive: -56.1%
80 | CCC1=NN2C(=N)/C(=C\c3ccc(SCc4ccco4)o3)C(=O)N=C2S1 | inactive: -23.1%
81 | Cc1ccc(C)c(N2CCN(C(=O)c3csc4ccccc34)CC2)c1 | inconclusive: -59.9%
82 | O=C(O)c1cccc(NS(=O)(=O)c2ccc(Cl)c(C(=O)O)c2)c1 | inconclusive: -55.2%
83 | Cc1oc(-c2cccs2)nc1CS(=O)CC(=O)NCCc1ccccc1 (stereo not given) | inactive: -27.8%
84 | CSc1cccc(NC(=O)C2CCN(S(=O)(=O)c3ccc(F)cc3)CC2)c1 | inconclusive: -40%
85 | COc1ccc(S(=O)(=O)N2CCCCCC2)cc1N(C)S(=O)(=O)c1ccccc1 | inconclusive: -54.5%
86 | CC(C)=CCC/C(C)=C/Cc1c(O)ccc(C(=O)/C=C/c2ccc(O)cc2)c1O | inconclusive: -57.2%
87 | COC(=O)c1sccc1NC(=O)CN(C)NS(=O)(=O)c1ccc([N+](=O)[O-])cc1 | inactive: 71.8%
88 | Cc1ccc2c(c1)C1(SCCS1)C(=O)N2 | inactive: 40.6%
89 | Cc1cccn2c(=O)c3cc(C#N)c(=O)n(Cc4cccnc4)c3nc12 | inconclusive: -60.1%
90 | O=C(CN1C(=O)CCSc2ccccc21)Nc1ccc(F)cc1 | inconclusive: -44%

2 of the compounds above, tab-delimited.
Row	Compound	activity change (PNC), negative = inhibition
35	Cn1c(=O)cc(OCC(=O)NCCCN2CCN(Cc3ccccc3)CC2)c2ccccc21	inconclusive: -60.7%
48	O=C(NCc1cccs1)c1cnc2sccn2c1=O	inconclusive: -33.6%
